Laboratory results: publication PMC5121602
No constants are given. Whether binding was seen depends on the method and setting. Binding seen in cells or lysates may run through a third protein. Tags and fused reporters may be left off the sequences shown.

Protein sequences, listed by entry. Tags and fused reporters are not part of them.
UniProt P46684: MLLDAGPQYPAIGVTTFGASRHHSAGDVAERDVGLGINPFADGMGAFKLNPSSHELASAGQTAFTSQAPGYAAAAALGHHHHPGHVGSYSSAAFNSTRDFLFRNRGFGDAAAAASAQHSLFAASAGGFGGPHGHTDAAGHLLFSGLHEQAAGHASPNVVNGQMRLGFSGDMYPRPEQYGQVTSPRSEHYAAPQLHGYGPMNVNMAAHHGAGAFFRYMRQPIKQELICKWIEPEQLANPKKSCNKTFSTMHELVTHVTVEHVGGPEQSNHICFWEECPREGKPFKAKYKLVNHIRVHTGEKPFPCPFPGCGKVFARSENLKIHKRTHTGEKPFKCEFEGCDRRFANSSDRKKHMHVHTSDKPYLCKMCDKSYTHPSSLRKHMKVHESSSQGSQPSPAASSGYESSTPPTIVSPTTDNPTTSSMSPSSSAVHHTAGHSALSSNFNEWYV

Molecular target: T1, HA-tagged Gmnn (mouse) (UniProt O88513)
T1 sequence: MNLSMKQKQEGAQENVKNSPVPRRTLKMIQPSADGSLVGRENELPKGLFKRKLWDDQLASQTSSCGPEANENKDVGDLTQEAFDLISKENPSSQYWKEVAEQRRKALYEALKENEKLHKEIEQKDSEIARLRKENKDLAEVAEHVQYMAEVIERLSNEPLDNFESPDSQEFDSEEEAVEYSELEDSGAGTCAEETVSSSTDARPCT
Experiment: co-IP; HEK 293 cells transfected with HA-tagged Gmnn and Myc-tagged Zic1; immunoprecipitation with HA antibody, blotted for Myc

In the case of “Myc-tagged Zic1 (from UniProt P46684 1-447)”, the binding is reported as “no binding”.
